Where a name gives a salt, the structure may show the parent alone.
Experiment: Body weight, blood urea nitrogen and serum creatinine after 5/6 nephrectomy, drug treatment model
Format: in vivo
Conditions: 2 weeks after nephrectomy; Mdk+/+ mice, oral daily at indicated dose; mean ± SD
Protocol: Animals and experimental design. Mice deficient in Mdk were generated as described previously (Genes Cells. 3:811-822). After backcrossing of Mdk+/− mice for 14 generations with 129/Sv mice, Mdk+/− mice were mated with each other to generate Mdk^+/+ and Mdk^−/− mice, which were used in this study. Experiments were performed on 8 to 12-week-old female mice weighing 20-25 g that were housed under controlled environmental conditions and maintained with standard food and water. Animal care and experimental procedures were approved by the Animal Experimentation Committee of the Nagoya University Graduate School of Medicine and were conducted according to the Nagoya University Regulations for Experiments. Renal ablation was performed as described previously. Briefly, mice were anesthetized by diethyl ether. The flank region was shaved, and the animals were placed on a heating pad to maintain a constant body temperature (37° C.). Under anesthesia, right flank incisions were made, and the right kidney was removed. Seven days later, mice were anesthetized as above, and two-thirds of the mass of the left kidneys was ablated (Mdk^+/+: 2 weeks, n=13; 4 weeks, n=13; 8 weeks, n=8; Mdk^−/−: 2 weeks, n=10; 4 weeks, n=10; 8 weeks, n=4). After the renal ablation, the flanks were closed in 2 layers with 5-0 silk sutures. […]
Drug treatment model. […] In the present study, we determined the dosage according to previous reports (Hypertension. 13:582-588, J. Cardiovasc. Pharmacol. 40:533-542, Hypertension. 43:841-848). Blood pressure was measured by the tail-cuff method at 2 weeks, as described below under Blood pressure monitoring. […]
Sample collection. […] Serum creatinine, blood urea nitrogen (Mdk^+/+: sham, n=6; 2 weeks, n=10; 4 weeks, n=9; 8 weeks, n=8; Mdk^−/−: sham, n=7; 2 weeks, n=7; 4 weeks, n=6; 8 weeks, n=4), and Ang II concentrations (Mdk^+/+: sham, n=6; 2 weeks, n=6; 4 weeks, n=8; Mdk^−/−: sham, n=6; 2 weeks, n=7; 4 weeks, n=5) were measured by Mitsubishi BCL.

Which BW does the source give for `NNc1nncc2ccccc12` [Hydralazine, hydralazine hydrochloride] here?
Its BW is 18.7 ± 0.7 g.

For `CCOC(=O)[C@H](CCc1ccccc1)N[C@H]1CS[C@H](c2cccs2)CN(CC(=O)O)C1=O` [Temocapril, temocapril], which BW is on record?
Its BW is 19.7 ± 2.7 g.

Which BW does the source give for `CC1(C)CC(O)CC(C)(C)N1[O]` [Tempol, 4-hydroxy-2,2,6,6-tetramethylpiperidine-N-oxyl] here?
Its BW is 21.4 ± 1.6 g.
